Experimental data as given in patent US20250115889A1 (DENTERIC, published 2025).
Results are given in words; binding and its absence hold for the method and conditions named. Some results given as binding are weak or reduced against the parent protein; the word gives no strength.

How the values were obtained:
[1] = biological target: rABM21-PNPFA (Porphyromonas gingivalis W50) (UniProt Q51817); experiment: Native PAGE without DTT; self-association (ability to form multimers)
[2] = biological target: rABM21-PSPYQ (Porphyromonas gingivalis W50) (UniProt Q51817); experiment: as above

Substance | binding [1] | binding [2]
rABM21-PNPFA (from UniProt Q51817 885-970) | binds | 
rABM21-PSPYQ (from UniProt Q51817 885-970) |  | binds
